US6660255B1, “Inhibition of gene transcription by polyamide DNA-binding ligands” (California Institute of Technology, priority 1997, dated 2003)

Sequences of proteins named here, by UniProt entry; tags and fusion partners are left off.
UniProt P20226, whole entry: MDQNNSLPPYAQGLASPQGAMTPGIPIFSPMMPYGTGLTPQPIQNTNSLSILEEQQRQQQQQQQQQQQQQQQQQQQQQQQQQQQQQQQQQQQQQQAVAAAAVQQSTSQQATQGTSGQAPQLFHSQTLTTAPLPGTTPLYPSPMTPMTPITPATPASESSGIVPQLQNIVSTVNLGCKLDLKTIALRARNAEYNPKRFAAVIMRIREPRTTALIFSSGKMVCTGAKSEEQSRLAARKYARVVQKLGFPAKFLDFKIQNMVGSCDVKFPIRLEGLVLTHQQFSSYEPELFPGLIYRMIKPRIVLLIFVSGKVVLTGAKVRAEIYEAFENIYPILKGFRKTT

Target: TBP (rhTBP) (Homo sapiens) (UniProt P20226)
Assay: binding assay
Conditions: TBP binding inhibited by polyamide Her2-1; method not stated; purified recombinant protein; protein details: Promega

TATAAGAATGA (double strand) [Her-2/neu TATA region]
binding result: binds

The exact form of at least one protein or probe is not confirmed.
